Some entries share one result that the patent states for a list of compounds.
Tested on: Normal human dermal fibroblasts (HNDF)
Assay: Myofibroblast transition assay (MFT), aSMA immunofluorescence
Type: cell-based
Details: relative to control
Source text: The myofibroblast transition (MFT) assay determines the effect of the peptide on inhibiting the transition of fibroblasts to myofibroblasts. The extracellular matrix produced by myofibroblasts may be produced in excess and may not be remodeled during tissue healing, leaving behind the fibrous connective tissue that forms a scar. Thus, the ability to regulate the degree of MFT may enable control of scarring. To determine if the peptides provided herein affect MFT, the following assay was performed.
Normal human dermal fibroblasts (HNDF) were cultured in high glucose Dulbecco's modified eagle medium (DMEM) supplemented with 10% fetal bovine serum (FBS) and 5 ml of 10,000 units of penicillin/streptomycin. Cells were cultured on 10 cm plates with media changes every 2 days. Cells were passaged in 0.25% Trypsin/EDTA after achieving 80% confluency.
To induce myofibroblast transition (MFT), normal human dermal fibroblasts (HNDFs) were split from 1-10 cm plates to 5-96 well plates. Cells were then allowed to grow the next day. The following day, cells were serum starved (1% FBS in DMEM) for 4 hours prior to adding 20 ng/ml of TGF-Beta to all wells of the plate. […]
Plates were imaged using the Celigo Imaging Cytometer by Nexcelcom. The ratio of fluorescent expression of alpha-smooth muscle actin (aSMA) and DAPI were quantified to determine the amount of aSMA/cell. […]

| Sequence | significant inhibition of MFT |
| --- | --- |
| IRTLDCDADKKDYCLFGRCQYIVELETFRCRCQKGYYGERCVYLEL [EA-2] | at least 25% |
| CDADKKDYCLFGRCQYIVELETFRCRCQKGYYGERCVYLEL [EA-1] | at least 25% |

Reference: US20250108088A1, “REGENERATIVE PEPTIDES AND METHODS FOR USE THEREOF” (priority 2023, published 2025)
